A short description of this data set: general procedure: Fmoc solid-phase peptide synthesis; Fmoc Ser(t-Bu) TentaGel S PHB 0.25 mmol/g; HBTU/HOAt/DIEA; HATU/HOAt/DIEA for the dye. The following applies: whole synthesis, scale 0.1 mmol.

“IRDye800-Glu-Glu-O2Oc-O2Oc-Asp-Cha-Phe-D-ser-D-arg-Tyr-Leu-Trp-Ser-OH”: the isolated mass turned out to be 2 mg. Moreover, under “UHPLC-MS (C4 and C18 columns)”, the “crude LC-MS purity” value is “above 80%” and the “final LC-MS purity” value is 98%.

The values are drawn from patent publication US20220401585A1 (RIGSHOSPITALET, priority 2019, published 2022).
